## Percent effect of library compounds

Source: ChEMBL document CHEMBL3988442, “University of Dundee, Small-Polar-MMV Screening Library” (2021).

T. brucei: 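Whole-parasite assay of Trypanosoma brucei over 72 hours; the read-out is not stated. Tested at 30 µM. The record gives no direction; compounds that gave an IC50 in retests scored well above the rest, so higher reads as stronger inhibition. Values scatter widely below zero; nearly all retest evidence comes from the higher of the two concentrations used. Size under these conditions: about 64,000 compounds, about 940 of them at 50% or above in at least one test.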
Toxoplasma: 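Assay of Toxoplasma gondii numbers, read through their beta-galactosidase reporter with a colour substrate. Concentration: 10 µM. The record gives no direction; the compounds picked for IC50 retests had high values, so higher reads as fewer parasites. Of about 67,000 compounds tested this way, about 260 (0.38%) reached 50% or more in at least one test.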

Results are given as percent effect.
How 0% and 100% were set is not recorded. Most values in the screen are low, and negative values occur.
Compounds were drawn at random from those tested, without regard to their results.
A dash means the value is not listed here; it may have been measured.

| compound | T. brucei | Toxoplasma |
|---|---|---|
| `COc1ccc(CC(=O)NCCNS(=O)(=O)c2ccc(C)cc2)cc1` | -27.35 | -6.455 |
| `[H][C@@]12CCN(Cc3ccsc3)C[C@]1([H])[C@@H](CN1CCN(C)CC1)OC2` | -13.08 | 6.09 |
| `O=C(NC[C@H]1OC[C@@H](NCc2ccccc2F)[C@@H]1O)Nc1ccccc1` | -5.553 | 5.172 |
| `Cc1nc(C)n(CC2CCCN2Cc2nc3ccccc3nc2C)n1` (stereo not drawn) | -3.332 | 7.213 |
| `COc1ccc(CNCC(C)Oc2ccccn2)cc1Cl.Cl` (stereo not drawn) | -26.07 | -15.75 |
| `CCn1cc(CN2CCCN(C(=O)CCN3CCCC3=O)CC2)cn1` | -24.45 | 19.54 |
| `Cn1cc(CNC2CCc3ncnn3C2)c(-c2cccnc2)n1` (stereo not drawn) | 8.031 | -9.18 |
| `CNS(=O)(=O)CCCn1nnc(-c2ccc(F)c(C)c2)n1` | -43.9 | 9.732 |
| `CSCC(=O)N1CCCN(Cc2cscn2)CC1` | - | 11.76 |
| `[H][C@@]12CCN(C(=O)COC)CC[C@]1(C(=O)Nc1ccccc1)CCN2C` | -4.892 | -12.37 |
| `O=C(NCCNc1ncccn1)C1CCN(C(=O)NC2CC2)CC1` | -21.65 | -20.44 |
| `CCCS(=O)(=O)NCc1nc(C)cc(N2CCCC2)n1` | 60.24 | -2.136 |
| `CCC(CNC(=O)c1cncc(Br)c1)N1CCc2ccccc2C1` (stereo not drawn) | -20.21 | -1.011 |
| `Cc1nonc1CN(C)c1nc(-c2cccnc2)nc2c1CCNC2` | -25.03 | -0.437 |
| `N#Cc1c(F)cccc1NCCCOCC1CCOC1` (stereo not drawn) | -14.36 | 2.06 |
| `Cc1cc(NCc2cccc(C#N)c2)ccc1C(N)=O` | 30.29 | 15.3 |
| `CC(C)(C)C(CCO)NC(=O)Nc1ccccc1` (stereo not drawn) | 19.16 | 8.649 |
| `O=C(O)C(F)(F)F.[H][C@]12CCN(C(=O)C3CCOCC3)[C@@]1([H])CCC(=O)N2Cc1ccncc1` | 23.7 | -5.619 |
| `COc1cccc2c1OCCCN(c1nc(C)nc3c1CCNCC3)C2` | 19.5 | 2.337 |
| `Cc1nc(-c2cccnc2)ncc1C(=O)N1CCC(C(C)N(C)C)CC1` (stereo not drawn) | -6.249 | 3.474 |
| `O=C(NC[C@H]1CCCN1)c1cc(COc2cccc(C(F)(F)F)c2)[nH]n1` | -16.37 | 13.1 |
| `COc1ccc(N2Cc3nc(=O)n(Cc4cccc(F)c4)n3C2=O)cc1` | -5.99 | 9.704 |
| `Cn1cnc2c1CCN(CCCS(=O)(=O)c1ccccc1)C2` | -5.769 | -18.73 |
| `COc1ccc(CCCN(C)C(=O)c2cc(Cl)c[nH]2)cc1OC` | -26.49 | 6.196 |
| `Cc1nc(CN2CCCC2c2ccsc2)nc2ccccc12` (stereo not drawn) | 6.541 | -3.881 |
| `Cc1cccc(C)c1NC(=O)c1cccc(N(C)S(C)(=O)=O)c1C` | -39.16 | 2.904 |
| `CN1CCN(c2ccccc2NC(=O)NCCc2ccc(O)cc2)CC1` | 8.397 | -15.74 |
| `CC(C)N(CCNC(=O)c1[nH]nc2ccc(I)cc12)C(C)C` | - | -2.382 |
| `CC(C)Nc1ncc(CN2C[C@@H](CN3CCC(O)CC3)[C@@H](CO)C2)cn1` | 34.53 | 3.414 |
| `CCN(CC)Cc1nc2c(o1)CN(C(=O)c1ccc3ncccc3c1)C2` | - | -18.16 |
| `[H][C@@]12CS(=O)(=O)C[C@]1([H])N(Cc1nccn1C)CCN2Cc1ccccc1` | 7.043 | -6.791 |
| `Cc1ncsc1CCN(C)C(=O)CN1CCOC1=O` | -20.68 | -5.092 |
| `CC(O)CN1CCC(CNCCOCC(F)(F)F)CC1` (stereo not drawn) | -17.86 | 4.853 |
| `O=C(O)C(F)(F)F.[H][C@@]12CCN(c3ncccn3)C[C@]1([H])CN(C(=O)CC(C)C)C2` | -27.97 | 3.907 |
| `FC(F)(F)COCCN1CCN(c2ccc3nncn3n2)CC1` | 29.6 | 6.564 |
| `CC(=O)NCCC1CCN(c2nc(C(C)(C)C)nc3c2cnn3C)CC1` | -8.387 | 8.67 |
| `O=C(O)C(F)(F)F.O=C(O)C(F)(F)F.O=C(O)C(F)(F)F.[H][C@]12C[C@@H](Cn3cccn3)N(C(C)C)[C@@]1([H])CCN(Cc1ccoc1)C2` | -29.08 | 1.011 |
| `Cn1ncnc1NCc1ccc(F)cc1` | -34.58 | -3.384 |
| `c1ccc(CCN2CCCC(c3noc(C4CC4)n3)C2)cc1` (stereo not drawn) | -57.32 | 1.167 |
| `COc1cc(NCc2ccccc2-n2cncn2)nc(N)n1` | 2.495 | -6.879 |
| `Cc1nn(C)c(C)c1C1CCCN1c1ncnc2c1CCC2` (stereo not drawn) | 21.2 | -0.3121 |
| `CCCC1(CO)CCCN(C(=O)CNC(N)=O)C1` (stereo not drawn) | -43.13 | -1.94 |
| `Cc1cc(C)n(C2CCN(c3ncnc4sc5c(c34)CCNC5)C2)n1` (stereo not drawn) | 2.585 | 10.98 |
| `COCCC(=O)N1CCC(c2nnc(-c3ccsc3)o2)CC1` | -17.11 | 9.433 |
| `O=C(Cc1cn2ccsc2n1)N1CCCC(n2ccnc2)C1` (stereo not drawn) | 0.2925 | -29.73 |
| `Cn1cnnc1C1CCCN(C(=O)c2cc(Cl)c(Cl)n2C)C1` (stereo not drawn) | - | 6.112 |
| `COCCNc1ccc(CC2CCNC2)cn1` (stereo not drawn) | -13.66 | 4.366 |
| `O=C1CC(c2cccs2)c2cnn(C3CCCC3)c2N1` (stereo not drawn) | 1.642 | -1.762 |
| `CCc1nc(CN2CCCC(NCCn3cncn3)C2)no1` (stereo not drawn) | -21.95 | -0.9489 |
| `[H][C@@]12CCCCCN(C(=O)C3CC3)[C@@]1([H])[C@H](c1cccc(F)c1)CN2C` | 14.59 | -16.99 |
| `N#CC1(NC(=O)COc2cc(Cl)cc(Cl)c2)CCOCC1` | -21.7 | 3.823 |
| `O=C(NCCNC(=O)C1CC1)c1sccc1Br` | -21.12 | 3.448 |

Repeated from the top, 6 entries:

compound	T. brucei	Toxoplasma
COc1ccc(CC(=O)NCCNS(=O)(=O)c2ccc(C)cc2)cc1	-27.35	-6.455
[H][C@@]12CCN(Cc3ccsc3)C[C@]1([H])[C@@H](CN1CCN(C)CC1)OC2	-13.08	6.09
O=C(NC[C@H]1OC[C@@H](NCc2ccccc2F)[C@@H]1O)Nc1ccccc1	-5.553	5.172
Cc1nc(C)n(CC2CCCN2Cc2nc3ccccc3nc2C)n1 (stereo not drawn)	-3.332	7.213
COc1ccc(CNCC(C)Oc2ccccn2)cc1Cl.Cl (stereo not drawn)	-26.07	-15.75
CCn1cc(CN2CCCN(C(=O)CCN3CCCC3=O)CC2)cn1	-24.45	19.54